{"source": "PubChem BioAssay AID1224827 (NIAID, 2016)", "screen": "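Confirm genes whose knock-down changes LPS-driven TNF promoter activity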 (follow-up of hits)", "cell system": "RAW264.7 G9 mouse macrophage reporter clone", "knock-down reagent": "single siRNA against mouse genes, 100 nM siRNA", "time to read-out": "siRNA for 2 days, then LPS about 16 h", "challenge": "bacterial lipopolysaccharide (LPS), 10 ng/ml, cells fixed after overnight (about 16 h) stimulation", "read-out": "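TNF promoter reporter red fluorescence in nuclei, background subtracted, normalised per plate and to non-targeting control siRNA, as z-scores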", "direction": "TNF reporter z-score, mean: higher = stronger Tnf promoter reporter signal", "call rule": "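Active siRNA: replicate-mean z-score of 2 or more, or -2 or less; no calls for control wells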", "note": "This is an unselected part of about 3,800 reagents tested. In the full data, about 2,200 (57%) are marked active. 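Active means a strong reporter change in either direction; calls are per siRNA, not per gene; qiagen siRNAs gave weaker effects.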 Entries without a mark were called inactive. The numbers tell different reagents against one gene apart. Further read-outs or replicates are left out here."}
{"gene":"Gm10283 (GeneID 330776)","siRNA no.":1,"TNF reporter z-score, mean":-0.371}
{"gene":"Gm10283 (GeneID 330776)","siRNA no.":2,"TNF reporter z-score, mean":"-3.85 (active)"}
{"gene":"Gm10283 (GeneID 330776)","siRNA no.":3,"TNF reporter z-score, mean":"-5.93 (active)"}
{"gene":"Gm10283 (GeneID 330776)","siRNA no.":4,"TNF reporter z-score, mean":"2.67 (active)"}
{"gene":"Gm10283 (GeneID 330776)","siRNA no.":5,"TNF reporter z-score, mean":"2.87 (active)"}
{"gene":"Gm10283 (GeneID 330776)","siRNA no.":6,"TNF reporter z-score, mean":0.351}
{"gene":"C9 (GeneID 12279)","siRNA no.":1,"TNF reporter z-score, mean":"-3.38 (active)"}
{"gene":"C9 (GeneID 12279)","siRNA no.":2,"TNF reporter z-score, mean":"-2.45 (active)"}
{"gene":"C9 (GeneID 12279)","siRNA no.":3,"TNF reporter z-score, mean":"-4.36 (active)"}
{"gene":"C9 (GeneID 12279)","siRNA no.":4,"TNF reporter z-score, mean":"2.48 (active)"}
{"gene":"C9 (GeneID 12279)","siRNA no.":5,"TNF reporter z-score, mean":0.872}
{"gene":"C9 (GeneID 12279)","siRNA no.":6,"TNF reporter z-score, mean":"-3.32 (active)"}

Reformatted: results already given.
gene | siRNA no. | TNF reporter z-score, mean
C9 (GeneID 12279) | 2 | -2.45 (active)
C9 (GeneID 12279) | 3 | -4.36 (active)
